{"source": "PubChem BioAssay AID504834", "about": "(National Center for Advancing Translational Sciences (NCATS), 2011)", "note": "The campaign covered roughly 320,000 compounds. About 22,000 (6.9%) were called active. This list was built around the results that the source calls inconclusive (neither active nor inactive); the mix of calls is not that of the screen. Calls come from the whole dose curve; as a rule, active = well fitted inhibition curve with a large enough effect; inconclusive = small, poorly fitted or top-dose-only effect, or another doubt; inactive = no such curve, though single readings can be large or run the other way. Potencies of inconclusive entries are doubtful fits and often do not repeat. % is set by controls: 0 for no effect and ±100 for the full control effect; potency is the fitted concentration of half-maximal effect.", "data": [{"assay": "Primary qHTS for delayed death inhibitors of the malarial parasite plastid, 96 hour incubation", "details": "P. falciparum luciferase reporter growth; series mostly up to 28.7 µM; activity change, negative = inhibition: at the top concentration", "method_in_brief": "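Readout is luminescence from an integrated firefly luciferase in P. falciparum. Red cells, 2% hematocrit and 0.05% parasitemia final, were cultured with compound through two parasite generations (96 hours) at 37 C, 5% CO2.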", "values": [{"smiles": "COc1ccc(NC(=O)c2cncn2-c2ccccc2)cc1", "activity change, negative = inhibition": "inactive: -3.1%"}, {"smiles": "COc1cc2c(cc1OC)CN(C(=O)COc1ccc(C#N)cc1)CC2", "Potency": "inconclusive: 4.65 µM [inhibitor, partial curve, poor fit]"}, {"smiles": "CN1CCc2c(sc3nc(NN)n(-c4ccc(Cl)cc4)c(=O)c23)C1", "Potency": "inconclusive: 18.5 µM [inhibitor, single point]"}, {"smiles": "Cc1ccc2[nH]c(=O)c(C(c3nnnn3C(C)(C)C)N(Cc3ccco3)CC3CCCO3)cc2c1", "note": "(centres undefined)", "Potency": "inconclusive: 16.5 µM [inhibitor, partial curve, poor fit]"}, {"smiles": "O=C(COc1ccc2c(c1)OCO2)Nc1cccc(F)c1", "activity change, negative = inhibition": "inactive: 7.69%"}, {"smiles": "O=C(CN1C(=O)c2ccccc2C1=O)Nc1cccc(O)c1", "Potency": "inconclusive: 18.5 µM [inhibitor, single point]"}, {"smiles": "C=CCNC(=O)CN1CCC(c2nc3cc(C)c(C)cc3[nH]2)CC1", "Potency": "inconclusive: 13.1 µM [inhibitor, single point]"}, {"smiles": "O=C(CN1CCOCC1)Nc1ccc(-c2nc3ccccc3[nH]2)cc1", "activity change, negative = inhibition": "inactive: 6.07%"}, {"smiles": "COc1ccc(Nc2nc(N)nc(CSC(=S)N3CCN(C)CC3)n2)cc1", "Potency": "inconclusive: 1.31 µM [inhibitor, partial curve]"}, {"smiles": "CCOc1ccc(N/C=C/C(=O)c2ccc(OC)cc2)cc1", "Potency": "inconclusive: 10.4 µM [inhibitor, partial curve, poor fit]"}, {"smiles": "CCC1Oc2ccccc2N(CC(=O)NCCc2ccc(OC)c(OC)c2)C1=O", "note": "(centres undefined)", "Potency": "active: 3.29 µM"}, {"smiles": "O=C(c1cc2ncc(Br)cn2n1)N1CCN(C(=O)c2ccco2)CC1", "activity change, negative = inhibition": "inactive: 41.4%"}, {"smiles": "NNc1nc(-c2ccccc2)nc2sc3c(c12)CCCC3", "Potency": "inconclusive: 3.7 µM [inhibitor, full curve, poor fit]"}, {"smiles": "COc1ccccc1NC(=O)COC(=O)COc1cccc2c1OC(C)(C)C2", "activity change, negative = inhibition": "inactive: 12.3%"}, {"smiles": "CCOC(=O)C1=C(C)N=C2SC(C)C(=O)N2C1c1ccc(C(=O)OC)cc1", "note": "(centres undefined)", "Potency": "active: 3.7 µM"}, {"smiles": "COC(=O)Cn1c(=O)c2c(n(Cc3ccccc3)c1=O)N/C(=C/c1ccc(Br)cc1)C2=O", "Potency": "inconclusive: 20.8 µM [inhibitor, partial curve, poor fit]"}, {"smiles": "C/C(Cn1nnc([N+](=O)[O-])n1)=N\\NC(=O)c1ccc(Cl)c(Cl)c1", "Potency": "inconclusive: 0.0928 µM [inhibitor, full curve]"}, {"smiles": "O=c1cc2c(nn1Cc1ccc(F)cc1)-c1ccccc1CC2", "Potency": "inconclusive: 18.5 µM [inhibitor, single point]"}, {"smiles": "O=C(c1ccccc1)N1CCc2[nH]nc(-c3ccccc3)c2C1", "Potency": "inconclusive: 18.5 µM [inhibitor, single point]"}, {"smiles": "Cc1nn(Cc2ccccc2)c(N)c1C#N", "Potency": "active: 11.7 µM"}, {"smiles": "CN(C)CCNC(=O)/C(=C/c1ccc(-c2cccc([N+](=O)[O-])c2)o1)NC(=O)c1ccccc1", "Potency": "inconclusive: 8.28 µM [inhibitor, partial curve, poor fit]"}, {"smiles": "COc1ccc2c(c1)c(CC(=O)OC(C)C(=O)N(C)C)c(C)n2C(=O)c1ccc(Cl)cc1", "note": "(centres undefined)", "Potency": "inconclusive: 9.28 µM [inhibitor, single point]"}, {"smiles": "Cc1cccc(NS(=O)(=O)c2ccc(C)c(C(=O)NCC(c3cccs3)N(C)C)c2)c1", "note": "(centres undefined)", "Potency": "inconclusive: 11.7 µM [inhibitor, partial curve]"}, {"smiles": "COc1ccccc1CNC(=O)CCCNC(=O)Cn1cnc2sc(C)c(C)c2c1=O", "Potency": "inconclusive: 0.165 µM [inhibitor, full curve, poor fit]"}, {"smiles": "CC(C)CNC(=O)c1cccc(NC(=O)C(C)C)c1", "Potency": "inconclusive: 18.5 µM [inhibitor, single point]"}, {"smiles": "COc1cc2c(cc1OC)C(c1cc3cc(C)ccc3[nH]c1=O)N(C(=O)c1ccco1)CC2", "note": "(centres undefined)", "activity change, negative = inhibition": "inactive: -5.33%"}, {"smiles": "Cc1cccc(NC(=S)N2CCN(S(=O)(=O)c3ccccc3)CC2)c1", "activity change, negative = inhibition": "inactive: -1.03%"}, {"smiles": "CCOc1ccc2nc(N3CCCC(C(=O)NCCCN4CC(C)CC(C)C4)C3)sc2c1", "note": "(centres undefined)", "Potency": "inconclusive: 18.5 µM [inhibitor, single point]"}, {"smiles": "Cc1cccc(N(C(=O)CCC(=O)Nc2ccccn2)C(C(=O)NC(C)C)c2ccc(F)cc2)c1", "note": "(centres undefined)", "Potency": "inconclusive: 18.5 µM [inhibitor, single point]"}, {"smiles": "CC(=O)c1ccc(OCC(C)C)c(CN2CCCCC2)c1", "Potency": "active: 3.7 µM"}, {"smiles": "CCOC(=O)C(=O)Nc1ccc(F)cc1", "activity change, negative = inhibition": "inactive: -17.4%"}, {"smiles": "O=[N+]([O-])c1ccc2nc(SCc3cn4ccccc4n3)[nH]c2c1", "Potency": "inconclusive: 11.7 µM [inhibitor, single point]"}, {"smiles": "CC1(C)CC(=O)C=C(c2ccc(-c3ccccc3)cc2)C1", "activity change, negative = inhibition": "inactive: -5.29%"}, {"smiles": "COc1cc(/C=C2\\C(=N)N3N=C(S(C)(=O)=O)SC3=NC2=O)ccc1OC(=O)c1ccco1", "Potency": "inconclusive: 18.5 µM [inhibitor, single point]"}, {"smiles": "Cc1nn(-c2ccccc2)c(C)c1/C=N/n1c(-c2ccncc2)n[nH]c1=S", "activity change, negative = inhibition": "inactive: -8.02%"}, {"smiles": "O=C(N/N=C/c1ccccn1)c1cc(-c2ccncc2)nc2ccccc12", "Potency": "inconclusive: 18.5 µM [inhibitor, single point]"}, {"smiles": "CC(C)OCCCn1c(-c2ccco2)nc2nc3ccccc3nc21", "Potency": "active: 3.29 µM"}, {"smiles": "COc1cc(CN2CCN(CC3CC3)CC2CCO)cc(OC)c1", "note": "(centres undefined)", "Potency": "inconclusive: 2.94 µM [inhibitor, single point]"}, {"smiles": "Cc1ccc([N+](=O)[O-])cc1N=Nc1c(C)[nH]n(C(N)=S)c1=O", "activity change, negative = inhibition": "inactive: 16.6%"}, {"smiles": "COc1ccc(C2/C=C\\CN(C(=O)c3ccccc3)[C@H](Cc3ccccc3)C(=O)N2Cc2ccc(F)cc2)cc1", "note": "(some centres undefined)", "Potency": "inconclusive: 11.7 µM [inhibitor, partial curve, poor fit]"}, {"smiles": "O=c1c2cc(Br)ccc2[nH]c(=S)n1-c1ccccc1", "activity change, negative = inhibition": "inactive: -19.7%"}, {"smiles": "Cc1ccc(NC(=O)CSc2ccc(-c3ccccn3)nn2)cc1F", "Potency": "inconclusive: 18.5 µM [inhibitor, single point]"}, {"smiles": "O=C(NCCCN1CCCC1=O)c1cccc(S(=O)(=O)N2CCN(c3ccc(F)cc3)CC2)c1", "Potency": "inconclusive: 0.828 µM [inhibitor, partial curve]"}, {"smiles": "Cn1c(=O)c(=O)n(C)c2cc(S(=O)(=O)N3CCCC3C(=O)Nc3ccc(F)cc3)ccc21", "note": "(centres undefined)", "Potency": "inconclusive: 18.5 µM [inhibitor, single point]"}, {"smiles": "c1cncc(-c2csc(NCc3ccco3)n2)c1", "Potency": "inconclusive: 10.4 µM [inhibitor, single point]"}, {"smiles": "O=C(CSc1ccccc1Cl)c1ccco1", "activity change, negative = inhibition": "inactive: 37%"}, {"smiles": "CC1(OC(=O)C2CCCC2)C(=O)C=C2C=C(c3ccsc3)N(Cc3ccccc3)C=C2C1=O", "note": "(centres undefined)", "Potency": "inconclusive: 10.4 µM [inhibitor, single point]"}, {"smiles": "COc1ccc2c(c1)-c1nc(/N=C/c3ccccc3O)sc1CC2", "Potency": "inconclusive: 10.4 µM [inhibitor, partial curve, poor fit]"}, {"smiles": "COC(=O)C1=C(O)/C(=C\\c2ccc(CNS(=O)(=O)c3ccc(Cl)cc3)o2)N=C1C", "activity change, negative = inhibition": "inactive: -30.1%"}, {"smiles": "Cc1cc(NC(=O)COC(=O)C(C)Oc2ccc(Cl)cc2Cl)no1", "note": "(centres undefined)", "activity change, negative = inhibition": "inactive: 16.9%"}, {"smiles": "CCOc1ccc(CNc2nnnn2C)cc1", "activity change, negative = inhibition": "inactive: -8.3%"}, {"smiles": "N#Cc1ccc2c(c1)C[C@]1(c3ccsc3)OC3=C(C(=O)OC4(CCCCC4)C3)C2O1", "Potency": "inconclusive: 3.01 µM [inhibitor, single point]"}, {"smiles": "c1cc2c(cc1-c1[nH]ncc1CN1C[C@H]3CC[C@H]1C3)OCO2", "Potency": "inconclusive: 10.4 µM [inhibitor, single point]"}, {"smiles": "CCOc1ccc(C(=O)Nc2ccc(S(=O)(=O)N3CCN(C)CC3)cc2)cc1", "Potency": "inconclusive: 3.7 µM [inhibitor, full curve]"}, {"smiles": "C/C(=N\\N=C1\\NC(=O)C(CC(=O)O)S1)c1ccccn1", "note": "(centres undefined)", "Potency": "active: 1.17 µM"}, {"smiles": "NC(=O)CC(NC(=O)Cc1ccc(Br)cc1)c1ccc(N2CCN(c3ccccn3)CC2)c([N+](=O)[O-])c1", "note": "(centres undefined)", "Potency": "inconclusive: 14.7 µM [inhibitor, partial curve, poor fit]"}, {"smiles": "Cc1cccc(NC(=O)c2cc(Cl)nc3ccccc23)n1", "Potency": "inconclusive: 18.5 µM [inhibitor, single point]"}, {"smiles": "CCOC(=O)c1c(-c2ccccc2)csc1NC(=O)CSc1nc(C)cc(C)n1", "Potency": "inconclusive: 18.5 µM [inhibitor, single point]"}, {"smiles": "CCc1nc2ccc(C(=O)NCCc3ccco3)cc2nc1CC", "Potency": "inconclusive: 11.7 µM [inhibitor, single point]"}, {"smiles": "CC12COC3(C(=O)NCCc4ccccc4)CC1CCC32C", "note": "(centres undefined)", "Potency": "active: 0.0029 µM"}, {"smiles": "O=C1c2ccccc2C(=O)N1CCSc1nc2ccccc2c(=O)n1CCCN1CCOCC1", "Potency": "inconclusive: 18.5 µM [inhibitor, single point]"}, {"smiles": "CCOC(=O)c1ccc2c(c1)N(CC(=O)N1CCCC1)C(=O)C(C)(C)O2", "activity change, negative = inhibition": "inactive: 7.73%"}, {"smiles": "C[C@H](NC(=O)c1nc[nH]c1C(=O)N1CCNCC1)C(=O)OC(C)(C)C", "activity change, negative = inhibition": "inactive: 19.4%"}, {"smiles": "CCC(=O)OCC(=O)c1cc(C)n(-c2ccc(Br)cc2)c1C", "activity change, negative = inhibition": "inactive: -10.8%"}, {"smiles": "O=C(Cn1nnc2ccccc21)c1cccc([N+](=O)[O-])c1", "Potency": "inconclusive: 13.1 µM [inhibitor, single point]"}, {"smiles": "COc1ccc(CN(C)C(c2ccccc2)c2nnnn2-c2ccccc2C)c(OC)c1C", "note": "(centres undefined)", "activity change, negative = inhibition": "inactive: -12.9%"}, {"smiles": "CN1c2ccccc2C(C)(C)C12C=Nc1c(cc(N3CCOCC3)c3ccccc13)O2", "note": "(centres undefined)", "Potency": "inconclusive: 2.94 µM [inhibitor, full curve, poor fit]"}, {"smiles": "O=C(Cn1cc(C(F)(F)F)ccc1=O)N1CCN(S(=O)(=O)c2ccc(Cl)cc2)CC1", "Potency": "inconclusive: 5.86 µM [inhibitor, partial curve]"}, {"smiles": "COC(=O)CCCC1=CC2=CC(=O)C(C)(OC(=O)c3cccs3)C(=O)C2=CN1CCc1ccccn1", "note": "(centres undefined)", "Potency": "inconclusive: 18.5 µM [inhibitor, single point]"}]}]}
